In PMC5441861:
Results are given in words; binding and its absence hold for the method and conditions named. A result given as binding can be weak or reduced; the word gives no strength. Where a sequence is shown, tags or fusion partners need not be part of it.

Sequences of proteins named here, by UniProt entry; tags and fusion partners are left off. A change or cut given only in a name is not applied to a line headed by its entry.
UniProt Q88A90: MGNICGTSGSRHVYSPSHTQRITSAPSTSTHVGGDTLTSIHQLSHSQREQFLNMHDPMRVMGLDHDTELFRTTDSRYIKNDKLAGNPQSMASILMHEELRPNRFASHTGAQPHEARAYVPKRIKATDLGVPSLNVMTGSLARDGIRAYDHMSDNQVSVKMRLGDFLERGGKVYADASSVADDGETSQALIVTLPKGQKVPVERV
UniProt Q48B66: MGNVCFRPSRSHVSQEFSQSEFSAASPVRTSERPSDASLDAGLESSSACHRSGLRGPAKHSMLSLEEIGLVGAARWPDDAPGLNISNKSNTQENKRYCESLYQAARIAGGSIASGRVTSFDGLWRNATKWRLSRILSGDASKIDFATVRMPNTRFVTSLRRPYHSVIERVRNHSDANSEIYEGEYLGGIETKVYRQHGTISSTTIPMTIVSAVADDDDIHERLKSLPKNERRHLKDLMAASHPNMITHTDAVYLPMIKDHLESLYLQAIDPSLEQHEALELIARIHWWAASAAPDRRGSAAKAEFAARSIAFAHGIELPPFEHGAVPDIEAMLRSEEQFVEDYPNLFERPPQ

T1: MBP–LSU1 (Arabidopsis thaliana) (UniProt Q9SCK1)
T1 sequence: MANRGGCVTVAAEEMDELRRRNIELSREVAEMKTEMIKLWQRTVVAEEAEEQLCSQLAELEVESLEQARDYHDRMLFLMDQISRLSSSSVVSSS


Key:
[1] = biological target: T1, MBP–LSU1 (Arabidopsis thaliana); test: pull-down; Glutathione agarose coated with GST–FSD2, equimolar purified MBP–LSU1 and/or MBP–NIMIN1, MBP–AvrXccC, MBP–AvrB2 or MBP–HopR1, 100 µl PBS, 3 h at 4 °C; four washes with PBS; western blot with anti-MBP, band intensity quantified; both purified
[2] = biological target: DB fusion with AvrB2pph (P. syringae pv. phaseolica (Psp)); test: two-hybrid; ORFs in pDEST-AD (GAL4 AD) against ORFs in pDEST-DB (GAL4 DB); diploid yeast, growth on selective media
[3] = biological target: DB fusion with HopAT1 (Pseudomonas syringae pv. tomato); test: as above
[4] = biological target: DB fusion with AvrXccC (Xanthomonas campestris pv. campestris); test: as above
[5] = biological target: DB fusion with AvrB2esh (P. syringae pv. phaseolica (Psp)); test: as above
[6] = biological target: DB fusion with HopF3 (Pseudomonas syringae pv. tomato) (UniProt Q88A90); test: as above

Row | Molecule | binding [1] | binding [2] | binding [3] | binding [4] | binding [5] | binding [6]
1 | MBP–AvrXccC (Xanthomonas campestris pv. campestris) | binds |  |  |  |  | 
2 | MBP–AvrB2 (from UniProt Q48B66) | binds |  |  |  |  | 
3 | GAL4 activation domain (AD)–LSU1 (protein, UniProt Q9SCK1 1-94) MANRGGCVTVAAEEMDELRRRNIELSREVAEMKTEMIKLWQRTVVAEEAEEQLCSQLAELEVESLEQARDYHDRMLFLMDQISRLSSSSVVSSS |  | binds | binds | binds | binds | binds
